Assay results from PubChem BioAssay AID504648 (National Center for Advancing Translational Sciences (NCATS), 2011).
Among all 390,000 compounds or so, about 610 (0.16%) were called active. The shares of active, inactive and inconclusive entries below differ from those in the screen. Calls follow the shape of the dose curve; as a rule, active = well fitted inhibition curve with a large enough effect; inconclusive = small, poorly fitted or top-dose-only effect, or effect the other way, or another doubt; inactive = no such curve, though single readings can be large or run the other way. Where the call is inconclusive, the potency comes from a doubtful curve fit.

Assay: Nrf2 qHTS screen for inhibitors: counterscreen for cytotoxicity
Conditions: A549 ARE-Fluc cells, CellTiter-Fluor viability, 18-24 h; series mostly up to 46 µM
Outline: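 A549 ARE-Fluc cells in 5% FBS OPTI-MEM, 5000 cells/well, rested 2 h then exposed to compounds in concentration-response for 18-24 h at 37 °C. Viability by CellTiter-Fluor fluorescence (Ex 405/Em 525) after 30 min; luciferase luminescence (BugLite, 15 min, RT) read afterwards.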
Potency is read from the fitted curve at half-maximal effect.

Row | Structure (SMILES) | Potency
1 | Cc1cccc2c(C(=O)N3CCN(C(=O)c4ccco4)CC3)cc(-c3cccc(Br)c3)nc12 | inconclusive: 29.1 µM [falling, single point]
2 | Cc1cccc(NS(=O)(=O)c2ccc(C3CCCCC3)cc2)c1 | inconclusive: 29.1 µM [falling, single point]
3 | COc1ccc(OCC(=O)NNc2c3ccccc3nc3ccccc23)cc1 | inconclusive: 29.1 µM [falling, partial curve, poor fit]
4 | Cc1nc(-n2[nH]c3c(c2=O)CCCC3)[nH]c(=O)c1Cc1ccccc1 | inconclusive: 23.1 µM [falling, single point]
5 | CCOC(=O)c1ccc(-n2[nH]c(-c3ccccc3)cc2=O)cc1 | inconclusive: 29.1 µM [falling, single point]
6 | COc1ccc(NC(=O)c2c(NCc3cccc(OC)c3)sc3c2CCCC3)cc1 | inconclusive: 18.4 µM [falling, partial curve, poor fit]
7 | CCN1CCc2nc3sc(C(=O)c4ccc(F)cc4)c(N)c3cc2C1 | inconclusive: 10.3 µM [falling, partial curve, poor fit]
8 | COC1=C/C(=C/c2c(O)c(C#N)c3ccccn23)C=CC1=O | inactive
9 | Cc1nc(N2CCN(c3ccccn3)CC2)c2c(C)c(C(=O)Nc3c(C)cc(Br)cc3C)sc2n1 | inactive
10 | O=C1[C@@H]2[C@@H]3C[C@@H]([C@H]4ON=C(c5ccc(Cl)cc5Cl)[C@@H]34)[C@@H]2C(=O)N1C1CCCCC1 | inconclusive: 20.6 µM [activator, partial curve, poor fit]
11 | CC(C)C1C(C#N)=C(N)Oc2n[nH]c(-c3ccc4ccccc4c3)c21 (stereo not given) | inconclusive: 29.1 µM [falling, single point]
12 | CC1(C)NC(=O)N(CCC(=O)Nc2cc(C(F)(F)F)ccc2Cl)C1=O | inactive
13 | COC(=O)c1ccc2c(c1)C(C)(C)C(/C=C/c1ccccc1O)=[N+]2C | inconclusive: 17.8 µM [falling, single point]
14 | Nc1ccc(N=Nc2ccccc2O)c(N)c1 | inconclusive: 13 µM [falling, partial curve]
15 | CCn1c(C)nc2cc(C(=O)NNC(=S)Nc3ccc(F)cc3)ccc21 | inactive
16 | COc1ccc(NC(=O)CCc2c(C)nc3nc(CNC(=O)OC(C)(C)C)nn3c2C)cc1OC | inactive
17 | Cc1ccccc1NC1=C(C(=O)c2ccccc2)N(C)S(=O)(=O)c2ccccc21 | inactive
18 | Cc1cc2c(cc1C)C(=O)NC(C)(C)C2 | inactive
19 | COc1ccc(-c2cc(C(=O)N3CCc4ccccc4C3)no2)cc1OC | inconclusive: 18.4 µM [falling, partial curve, poor fit]
20 | COc1cccc(CNc2ccc(Br)cn2)c1O | inconclusive: 5.17 µM [falling, partial curve, poor fit]
21 | CC(=O)N1CCCC1c1nc2ccccc2n1Cc1ccccc1C (stereo not given) | inconclusive: 9.2 µM [falling, partial curve]
22 | CCOc1ccc(NC(=O)CN(C)C(=O)c2cn(-c3ccccc3)nc2-c2cccs2)cc1OCC | inactive

Row | Structure (SMILES) | Potency
23 | Cc1cccc(-c2oc(C)c(C)[n+]2[O-])c1 | inconclusive: 10 µM [activator, partial curve, poor fit]
24 | COC1=C(Nc2ccc(O)cc2)C(=O)c2ccccc2C1=O | inconclusive: 18.4 µM [falling, single point]
25 | Cc1cc(Nc2ccc(N3CCOCC3)cc2)c2cccc(C)c2n1 | inconclusive: 11.6 µM [falling, partial curve]
26 | CCc1ccc(S(=O)(=O)/N=C2\C=C(Nc3ccc(C(=O)O)cc3)C(=O)c3ccccc32)cc1 | inactive
27 | COc1cccc(C(=O)/C=C/Nc2ccc(S(=O)(=O)Nc3ncccn3)cc2)c1 | inconclusive: 25.9 µM [falling, partial curve, poor fit]
28 | CC(=O)Nc1nc2n(n1)C(c1ccccc1)C=C(c1ccccc1)N2 (stereo not given) | inconclusive: 20.6 µM [activator, partial curve]
29 | Cc1ccc2[nH]c(=O)c(CN(Cc3ccccc3)Cc3nnnn3C3CCCC3)cc2c1 | inconclusive: 14.6 µM [falling, single point]
30 | CN(CC(=O)Nc1ccccc1C(F)(F)F)C(=O)c1ccc(N2C(=O)CCC2=O)cc1 | inactive
31 | CCC(C)NS(=O)(=O)c1ccc(NC(=O)C(Sc2ccccc2)c2ccccc2)cc1 (stereo not given) | inconclusive: 29.1 µM [falling, single point]
32 | C=CCN(C(=O)CSc1nc2c(sc3ccccc32)c(=O)n1CCN(CC)CC)c1ccccc1 | inconclusive: 29.1 µM [falling, single point]
33 | CCCn1c(O)c(N=Nc2ccc3ccccc3n2)c2ccccc21 | inconclusive: 20.6 µM [falling, partial curve, poor fit]
34 | Cc1ccc(Cl)cc1N1CCN(C(=O)Cn2cnc3sc(C)c(S(=O)(=O)N4CCC(C)CC4)c3c2=O)CC1 | inactive
35 | COc1cccc(-n2c(=O)c3ccccc3n(CC(=O)NCC3CCCO3)c2=O)c1 (stereo not given) | inconclusive: 14.6 µM [falling, partial curve, poor fit]
36 | Cn1c(=O)c2[nH]c(CCCCCCCc3nc4ccccc4[nH]3)nc2n(C)c1=O | inconclusive: 20.6 µM [falling, partial curve, poor fit]
37 | O=C(Nc1cccc(S(=O)(=O)N2CCCCC2)c1)c1ccc(S(=O)(=O)C(F)F)cc1 | inactive
38 | O=C1CCCN1CCCNc1ncccc1[N+](=O)[O-] | inconclusive: 20.6 µM [falling, partial curve, poor fit]
39 | Cc1cc(NC(=O)COC(=O)C(Nc2ccc(C(F)(F)F)cc2Cl)C(C)C)no1 (stereo not given) | active: 23.1 µM
40 | COC(=O)NCC(c1cccnc1)N1CCN(c2ccc(F)cc2)CC1 (stereo not given) | inconclusive: 23.1 µM [falling, single point]
41 | O=C(Nc1ncc([N+](=O)[O-])s1)c1ccc2c(c1)OCO2 | inconclusive: 18.4 µM [falling, partial curve, poor fit]
42 | Cc1ccc(N2CC(C(=O)N3CCC(c4nc5ccccc5[nH]4)CC3)CC2=O)cc1C (stereo not given) | inconclusive: 18.4 µM [falling, partial curve, poor fit]
43 | CC(C)CCNC(=O)COc1ccc2c3c(c(=O)oc2c1)CCC3 | inactive
44 | CCn1c(/C=C/Nc2ccccc2)[n+](CC)c2cc(Cl)c(Cl)cc21 | inconclusive: 20.6 µM [falling, single point]

Row | Structure (SMILES) | Potency
45 | O=C(/C=C/c1ccccc1)NCC(=O)N/N=C\c1cccnc1 | inconclusive: 29.1 µM [activator, single point]
46 | COC(=O)c1c(NC(=O)COC(=O)c2ccc(Cl)nc2)sc(C)c1C | inactive
47 | C=CCC[C@@H](Cc1ccc(F)cc1)C(=O)OC[C@@H](NC(=O)[C@@H](CC=C)CC(=O)N[C@@H](CO)Cc1ccccc1)C(C)(C)C | inconclusive: 18.4 µM [falling, single point]
48 | O=C(Cc1ccc(F)cc1)N1CCC(CC2CC(c3cccc(Br)c3)=NO2)(C(=O)NCC2CCCCC2)CC1 (stereo not given) | inconclusive: 29.1 µM [falling, partial curve, poor fit]
49 | CC(C)CC(COCc1cccc(C(F)(F)F)c1)N1CCN(C(=O)c2cccc(C(F)(F)F)c2)CCC1=O (stereo not given) | inconclusive: 23.1 µM [falling, partial curve, poor fit]
50 | Cc1ccc2[nH]c(=O)cc(C(=O)OCC(=O)c3ccccc3)c2c1 | inactive
51 | COn1c(-c2ccc(Cl)cc2)nc2ncccc21 | inactive
52 | O=C(CNC(=O)OCc1ccccc1)OC(c1ccccc1)c1ccccc1 | inconclusive: 20.6 µM [falling, partial curve, poor fit]
53 | CCOc1cc(/C=N/O)cc(Br)c1OC | inconclusive: 23.1 µM [activator, single point]
54 | COc1ccc([C@H]2/C=C\CN(C(=O)[C@H](Cc3ccccc3)NC(=O)OCC3c4ccccc4-c4ccccc43)CC(=O)N2Cc2ccc(F)cc2)cc1 | inconclusive: 23.1 µM [falling, partial curve]
55 | Cc1nc2cc(-c3cccc(F)c3)nn2c(C)c1CCC(=O)N1CCN(c2ccccn2)CC1 | inactive
56 | O=S(=O)(c1ccccc1)c1nc(-c2ccccc2Cl)oc1NCCCN1CCOCC1 | inconclusive: 29.1 µM [falling, partial curve, poor fit]
57 | CC(=O)c1ccc(Nc2cc(C)nc3ccccc23)cc1 | inactive
58 | Oc1cccc(-c2nc3c4c(ncn3n2)-c2ccccc2CC42CCCC2)c1 | inconclusive: 29.1 µM [falling, single point]
59 | CCN(CC)S(=O)(=O)c1cccc(NC(=O)CNc2cccc(S(=O)(=O)N3CCCC3)c2)c1 | inconclusive: 7.31 µM [falling, partial curve, poor fit]
60 | COc1ccccc1C(=O)COC(=O)c1cc([N+](=O)[O-])ccc1N1CCOCC1 | inactive
61 | COc1cc(OC)c(NC(=O)Nc2cccc(OCc3cc(=O)n4ccccc4n3)c2)cc1Cl | inactive
62 | NC(=O)COC(=O)c1ccccc1Nc1ccc(SC(F)F)cc1 | inactive
63 | CC(=O)C(C(C)=O)c1c(Cl)c(O)c(O)c2c(C(=O)c3ccccc3)coc12 | inconclusive: 20.6 µM [falling, partial curve]
64 | COc1cc(C(=O)Nc2ccc3oc(-c4ccccc4)nc3c2)cc(OC)c1OC | inconclusive: 32.6 µM [falling, partial curve, poor fit]
65 | COc1cccc(/C(C)=N/NC(=O)c2cc(-c3cccnc3)nc3ccccc23)c1 | inactive

Not a retest: an excerpt of the list.
Row | Structure (SMILES) | Potency
13 | COC(=O)c1ccc2c(c1)C(C)(C)C(/C=C/c1ccccc1O)=[N+]2C | inconclusive: 17.8 µM [falling, single point]
14 | Nc1ccc(N=Nc2ccccc2O)c(N)c1 | inconclusive: 13 µM [falling, partial curve]
15 | CCn1c(C)nc2cc(C(=O)NNC(=S)Nc3ccc(F)cc3)ccc21 | inactive
